Source: the supplement of paper PMC6078165
The reference is the same well before dosing, and untreated signal decays as well.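 Labels refer to human fibroblasts, largely primary: uterine (C12385, HUF), lung (H6013), bone (Hs27A), adrenal (HADF), skin (WS1), plus mammary HMF and breast cancer-associated Hs343T. Cancer lines are basal-like or mesenchymal-like triple-negative breast cancer. The paper counts as hits responses shifting over 3x the replicate standard deviation. The tissue of the other fibroblasts is not given here.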

Test system: MDAMB231
Assay: relative JC-1 red fluorescence (viability) vs pre-drug, coculture with fibroblast (fraction); higher = more viable cancer cells
Method: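 JC-1 labelled TNBC cells cocultured 1:1 (1,500 cells each) with CellTrace Violet stained primary or stromal fibroblasts in 384-well plates in FluoroBrite medium, treated with one of 42 anticancer drugs at 0.1, 1, 10 or 100 uM. JC-1 red fluorescence (mitochondrial integrity in cancer cells only) was read by plate reader every 8 h for 72 h. Values are normalised to each well's pre-drug value. The stock of one drug was tenfold lower, so its dose labels may be too high.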

CC[C@]1(O)C[C@H]2CN(CCc3c([nH]c4ccccc34)[C@@](C(=O)OC)(c3cc4c(cc3OC)N(C=O)[C@H]3[C@@](O)(C(=O)OC)[C@H](OC(C)=O)[C@]5(CC)C=CCN6CC[C@]43[C@@H]65)C2)C1 [Vincristine]
relative JC-1 red fluorescence
Conditions	8 h	16 h	24 h	32 h	40 h	48 h	56 h	64 h	72 h
0.1 µM, coculture fibroblast: C12385	0.7843	0.7106	0.798	0.69	0.653	0.661	0.642	0.693	0.709
0.1 µM, coculture fibroblast: H6013	0.88355	0.8452	0.808	0.791	0.767	0.774	0.762	0.763	0.736
0.1 µM, coculture fibroblast: H6019	0.818	0.727	0.736	0.705	0.675	0.6884	0.6737	0.715	0.701
0.1 µM, coculture fibroblast: H6076	0.817	0.743	0.6982	0.688	0.676	0.663	0.6711	0.6819	0.71
0.1 µM, coculture fibroblast: H6231	0.867	0.794	0.731	0.686	0.64	0.616	0.588	0.579	0.575
0.1 µM, coculture fibroblast: HADF	0.8949	0.846	0.7967	0.748	0.696	0.665	0.64	0.621	0.579
0.1 µM, coculture fibroblast: HCFa	0.8977	0.839	0.792	0.76	0.709	0.669	0.639	0.61	0.568
0.1 µM, coculture fibroblast: HCPF	0.851	0.761	0.719	0.699	0.653	0.621	0.595	0.59	0.594
0.1 µM, coculture fibroblast: HHSteC	0.906	0.87	0.835	0.785	0.748	0.729	0.693	0.678	0.654
0.1 µM, coculture fibroblast: HMF	0.867	0.785	0.72	0.683	0.643	0.607	0.589	0.588	0.584
0.1 µM, coculture fibroblast: HPFa	0.915	0.886	0.83	0.776	0.741	0.714	0.664	0.635	0.6
0.1 µM, coculture fibroblast: HUF	0.82	0.696	0.7577	0.621	0.572	0.5707	0.534	0.553	0.551
0.1 µM, coculture fibroblast: Hs5	0.847	0.813	0.799	0.774	0.769	0.732	0.73	0.728	0.73129
0.1 µM, coculture fibroblast: Hs27A	0.883	0.837	0.797	0.781	0.733	0.724	0.705	0.699	0.672
0.1 µM, coculture fibroblast: Hs343T	0.801	0.687	0.607	0.565	0.5109	0.48	0.45975	0.4574	0.4543
0.1 µM, coculture fibroblast: WS1	0.773	0.695	0.744	0.642	0.606	0.612	0.587	0.632	0.639
1 µM, coculture fibroblast: C12385	0.758	0.744	0.592	0.603	0.544	0.504	0.461	0.449	0.439
1 µM, coculture fibroblast: H6013	0.9058	0.8637	0.798	0.761	0.718	0.705	0.69	0.674	0.646
1 µM, coculture fibroblast: H6019	0.792	0.763	0.691	0.681	0.632	0.629	0.59	0.596	0.567
1 µM, coculture fibroblast: H6076	0.913	0.9	0.782	0.753	0.687	0.645	0.602	0.587	0.57
1 µM, coculture fibroblast: H6231	0.912	0.801	0.7262	0.697	0.645	0.618	0.572	0.561	0.545
1 µM, coculture fibroblast: HADF	0.9096	0.87	0.814	0.773	0.707	0.648	0.614	0.585	0.55
1 µM, coculture fibroblast: HCFa	0.8874	0.823	0.7675	0.73229	0.6501	0.605	0.561	0.5329	0.483
1 µM, coculture fibroblast: HCPF	0.88	0.777	0.678	0.661	0.603	0.561	0.521	0.496	0.467
1 µM, coculture fibroblast: HHSteC	0.9146	0.8616	0.8008	0.7589	0.702	0.674	0.627	0.605	0.565
1 µM, coculture fibroblast: HMF	0.8755	0.7741	0.6806	0.64	0.588	0.552	0.5114	0.489	0.482
1 µM, coculture fibroblast: HPFa	0.9551	0.928	0.837	0.79	0.731	0.695	0.626	0.604	0.557
1 µM, coculture fibroblast: HUF	0.853	0.756	0.737	0.63	0.565	0.545	0.493	0.494	0.483
1 µM, coculture fibroblast: Hs5	0.918	0.833	0.7273	0.672	0.615	0.5532	0.507	0.482	0.46
1 µM, coculture fibroblast: Hs27A	0.8928	0.8209	0.766	0.7428	0.685	0.618	0.615	0.581	0.538
1 µM, coculture fibroblast: Hs343T	0.908	0.817	0.695	0.643	0.564	0.516	0.459	0.434	0.409
1 µM, coculture fibroblast: WS1	0.76	0.723	0.584	0.562	0.497	0.464	0.421	0.42	0.409
10 µM, coculture fibroblast: C12385	0.767	0.756	0.663	0.69	0.642	0.611	0.568	0.565	0.546
10 µM, coculture fibroblast: H6013	0.899	0.85436	0.81352	0.79376	0.746	0.7121	0.6919	0.6703	0.6319
10 µM, coculture fibroblast: H6019	0.783	0.742	0.721	0.712	0.674	0.673	0.643	0.667	0.658
10 µM, coculture fibroblast: H6076	0.87107	0.8022	0.771	0.747	0.718	0.697	0.676	0.671	0.675
10 µM, coculture fibroblast: H6231	0.901	0.798	0.75	0.713	0.662	0.636	0.608	0.597	0.573
10 µM, coculture fibroblast: HADF	0.889	0.871	0.827	0.8	0.761	0.714	0.6834	0.659	0.6134
10 µM, coculture fibroblast: HCFa	0.8837	0.8377	0.801	0.7642	0.713	0.674	0.644	0.6132	0.582
10 µM, coculture fibroblast: HCPF	0.858	0.779	0.734	0.708	0.665	0.62	0.596	0.566	0.546
10 µM, coculture fibroblast: HHSteC	0.90301	0.866	0.818	0.779	0.738	0.693	0.658	0.622	0.583
10 µM, coculture fibroblast: HMF	0.871	0.823	0.7922	0.7673	0.737	0.706	0.6719	0.662	0.641
10 µM, coculture fibroblast: HPFa	0.946	0.9244	0.877	0.824	0.801	0.765	0.712	0.675	0.633
10 µM, coculture fibroblast: HUF	0.861	0.771	0.833	0.717	0.665	0.661	0.619	0.636	0.638
10 µM, coculture fibroblast: Hs5	0.902	0.841	0.7905	0.75	0.706	0.649	0.61	0.589	0.574
10 µM, coculture fibroblast: Hs27A	0.913	0.8519	0.80679	0.776	0.7179	0.6501	0.644	0.617	0.571
10 µM, coculture fibroblast: Hs343T	0.857	0.788	0.742	0.692	0.65	0.61	0.56	0.541	0.509
10 µM, coculture fibroblast: WS1	0.793	0.783	0.73	0.718	0.683	0.657	0.614	0.605	0.583
100 µM, coculture fibroblast: C12385	0.755	0.78	0.693	0.764	0.735	0.734	0.708	0.707	0.698
100 µM, coculture fibroblast: H6013	0.9286	0.907	0.88	0.892	0.868	0.849	0.8438	0.8282	0.803
100 µM, coculture fibroblast: H6019	0.8003	0.793	0.774	0.802	0.795	0.806	0.8	0.818	0.804
100 µM, coculture fibroblast: H6076	0.94	0.907	0.88	0.861	0.838	0.8	0.772	0.774	0.771
100 µM, coculture fibroblast: H6231	0.904	0.902	0.791	0.8815	0.821	0.786	0.726	0.771	0.798
100 µM, coculture fibroblast: HADF	0.92	0.9038	0.897	0.888	0.87	0.8083	0.8022	0.7826	0.731
100 µM, coculture fibroblast: HCFa	0.9217	0.8839	0.878	0.868	0.818	0.772	0.742	0.724	0.694
100 µM, coculture fibroblast: HCPF	0.9252	0.8607	0.837	0.824	0.787	0.754	0.7218	0.704	0.686
100 µM, coculture fibroblast: HHSteC	0.938	0.9099	0.904	0.9104	0.8671	0.8522	0.8213	0.8088	0.782
100 µM, coculture fibroblast: HMF	0.957	0.94029	0.924	0.918	0.883	0.86	0.82	0.798	0.772
100 µM, coculture fibroblast: HPFa	0.963	0.962	0.93	0.896	0.863	0.827	0.787	0.779	0.739
100 µM, coculture fibroblast: HUF	0.8861	0.836	0.866	0.794	0.758	0.742	0.707	0.711	0.703
100 µM, coculture fibroblast: Hs5	0.9356	0.893	0.879	0.859	0.833	0.783	0.746	0.719	0.702
100 µM, coculture fibroblast: Hs27A	0.933	0.917	0.889	0.885	0.835	0.761	0.786	0.768	0.733
100 µM, coculture fibroblast: Hs343T	0.948	0.902	0.867	0.856	0.822	0.777	0.718	0.708	0.683
100 µM, coculture fibroblast: WS1	0.7837	0.789	0.7068	0.733	0.722	0.708	0.679	0.667	0.648
